In patent publication US20260242486A1 one finds binding data, which are given here for 1 molecule.

No constants are given. Whether binding was seen depends on the method and setting. Some entries that bind do so weakly or less than the wild type. Sequences can lack the tags named with a protein.

The assay has as its target T1, CLL1 screening antigen CLL1-6×His (B918602) protein (UniProt Q5QGZ9).
T1 sequence (looked up): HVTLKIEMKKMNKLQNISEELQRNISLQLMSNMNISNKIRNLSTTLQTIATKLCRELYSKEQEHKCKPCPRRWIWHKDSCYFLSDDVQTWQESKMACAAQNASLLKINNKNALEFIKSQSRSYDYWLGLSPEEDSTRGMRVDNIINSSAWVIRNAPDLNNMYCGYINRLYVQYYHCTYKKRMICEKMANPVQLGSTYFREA
In words: monoclonal phage ELISA on coated CLL1-6×His (positive clone, OD450 > 0.5; value not given). (In general: In an ELISA, binding on a coated surface is turned into a signal by an enzyme label.)

B1: single-domain antibody CLL1-VHH-1 (VHH, as phage-displayed clone in the screening ELISA) (VHH)
VHH: DVQLQESGGGLVQPGGSLRLSCAASGFTFGDYDMTWVRQAPGKGPEWVSAINSGGGSTYYADSVKGRFTISRDNAKNTLYLQMNSLKPEDTAVYYCATIDRLSTVVAGTYQPSDEYDYWGQGTQVTVSS
Consider B1, for which the binding entry was “binds”.
